Measured values: PubChem BioAssay AID248 (DTP/NCI, 2004)
The list does not hold the whole screen: it is rich in T/C values a quarter to a half above the control, in often repeated tests (any T/C) and in doses without a T/C. Other doses and runs of a compound stand elsewhere. T/C gives the treated animals as a percentage of the vehicle group. Some entries give survivors of the animals treated and no T/C: the source holds a T/C of zero for them, seemingly a mark for toxic or unscored doses. Some doses without a T/C left all or most animals alive at the check, yet need not have been tolerated: survival well below the control is almost never listed, so the zero probably covers shortened survival too. Counts of survivors are from the toxicity check (mostly the fifth day) where no day follows; animals may have died later. Schedules are NCI's codes, taken here to give the interval after Q, in days (D) or hours (H), and the number of doses after X. Some doses were run more than once; their values stand side by side, smallest first. For survival time, this PubChem deposit counts one and a half times the control or more as active, and values a quarter to a half above the control carry no call in these data; other NCI protocols may use other cut-offs.

Test system: L1210 leukemia ip in BDF1 mice, survival T/C
Assay: NCI In Vivo Anticancer Drug Screen. Data for tumor model L1210 Leukemia (intraperitoneal) in B6D2F1 (BDF1) mice
Settings: higher T/C = longer survival
[1] = T/C endpoint: mean survival time, dose: 100.0 mg/kg/injection, schedule: Q04DX003 (ip), vehicle: Klucel (hydroxypropylcellulose) (HPC)
[2] = T/C endpoint: mean survival time, dose: 200.0 mg/kg/injection, schedule: Q04DX003 (ip), vehicle: Klucel (hydroxypropylcellulose) (HPC)
[3] = T/C endpoint: mean survival time, dose: 400.0 mg/kg/injection, schedule: Q04DX003 (ip), vehicle: Klucel (hydroxypropylcellulose) (HPC)

`Cn1c(=O)c2[nH]c(C3CC3)nc2n(C)c1=O` was tested, and the survivor count (T/C endpoint: mean survival time, dose: 400.0 mg/kg/injection, schedule: Q01DX001 (ip), vehicle: saline) was 0 of 4.
`Clc1ccc(N=Cc2ccc(C=Nc3ccc(Cl)c(Cl)c3)cc2)cc1Cl` was tested, and the survivor count (T/C endpoint: mean survival time, dose: 100.0 mg/kg/injection, schedule: Q01DX009 (ip), vehicle: saline sonified) was 6 of 6 and the survivor count (T/C endpoint: mean survival time, dose: 400.0 mg/kg/injection, schedule: Q01DX009 (ip), vehicle: saline sonified) was 6 of 6.
In the case of `Cc1ccc(C(=O)C(Br)C(Br)c2ccccc2)cc1` (centres undefined), the survivor count (T/C endpoint: mean survival time, dose: 400.0 mg/kg/injection, schedule: Q01DX009 (ip), vehicle: saline with Tween-80) was 2 of 6.
For `Cc1c(N)nc([C@H](CC(N)=O)NC[C@H](N)C(N)=O)nc1C(=O)N[C@H](C(=O)N[C@H](C)[C@@H](O)[C@H](C)C(=O)N[C@H](C(=O)NCCc1nc(-c2nc(C(=O)NCCC[S+](C)C)cs2)cs1)[C@@H](C)O)C(OC1OC(CO)C(O)C(O)C1OC1OC(CO)C(O)C(OC(N)=O)C1O)c1cnc[nH]1` (some centres undefined), the survivor count (T/C endpoint: mean survival time, dose: 250.0 mg/kg/injection, schedule: Q01DX009 (ip), vehicle: saline) was 5 of 6, the T/C (T/C endpoint: median survival time, dose: 16.0 mg/kg/injection, schedule: Q01DX009 (ip), vehicle: saline) was 125 % of control and the survivor count (T/C endpoint: median survival time, dose: 32.0 mg/kg/injection, schedule: Q01DX009 (ip), vehicle: saline) was 5 of 6.
For `N#CCc1ccc(N=Cc2ccc([N+](=O)[O-])s2)cc1`, the survivor count [1] was 4 of 6, the survivor count (T/C endpoint: mean survival time, dose: 100.0 mg/kg/injection, schedule: Q04DX003 (ip), vehicle: saline with Tween-80) was 0 of 6 and the survivor count [2] was 0 of 6. For the same compound, the survivor count [3] was 0 of 6.
In the case of `CC(CCC(=O)O)(c1cc(Cl)c(O)c(Cl)c1)c1cc(Cl)c(O)c(Cl)c1`, the survivor count (T/C endpoint: mean survival time, dose: 400.0 mg/kg/injection, schedule: Q01DX009 (ip), vehicle: gum acacia) was 3 of 6.
With `Cc1cccc(NC(=O)Nc2cccc(Cl)c2Cl)n1` the survivor count (T/C endpoint: mean survival time, dose: 400.0 mg/kg/injection, schedule: Q01DX009 (ip), vehicle: Klucel (hydroxypropylcellulose) (HPC)) was 1 of 6.
In the case of `O=C(O)c1cc2ccccc2c(Br)c1O.OC1CCCC2CCC[N-]C12.[Cu+]`, the T/C (T/C endpoint: mean survival time, dose: 8.0 mg/kg/injection, schedule: Q01DX015 (sc), vehicle: steroid suspending solution) was 147 % of control, the survivor count (T/C endpoint: mean survival time, dose: 200.0 mg/kg/injection, schedule: Q01DX001 (sc), vehicle: steroid suspending solution) was 2 of 6 and the survivor count (T/C endpoint: mean survival time, dose: 400.0 mg/kg/injection, schedule: Q01DX001 (sc), vehicle: steroid suspending solution) was 0 of 6.
`CN(C)c1ncnc2c1c(Br)cn2C1OC(CO)C(O)C1O` (centres undefined) was tested, and the survivor count (T/C endpoint: mean survival time, dose: 80.0 mg/kg/injection, schedule: Q01DX001 (ip), vehicle: saline) was 0 of 4.
For `CCCCCCC[n+]1ccc(C(=O)c2ccccc2)cc1`, the survivor count (T/C endpoint: mean survival time, dose: 150.0 mg/kg/injection, schedule: Q01DX001 (ip), vehicle: carboxymethylcellulose (CMC)) was 1 of 6.
For `CC1(C)N=C(N)N=C(N)N1c1cccc(Oc2ccc(N)cc2)c1`, the survivor count [1] was 1 of 6 and 3 of 6, the survivor count [2] was 1 of 6 and the survivor count [3] was 0 of 6.
For `COc1ccc2c(c1)C(=O)CC(C)N2S(=O)(=O)c1ccc(C)cc1` (centres undefined), the T/C (T/C endpoint: mean survival time, dose: 75.0 mg/kg/injection, schedule: Q04DX002 (ip), vehicle: Klucel (hydroxypropylcellulose) (HPC)) was 126 % of control.
`NC1=Nc2ccccc2CS1` was tested, and the survivor count (T/C endpoint: mean survival time, dose: 75.0 mg/kg/injection, schedule: Q04DX003 (ip), vehicle: saline) was 0 of 6.
In the case of `O=C1C=CC(=O)C2C1C1(Cl)CC2(Cl)C(Cl)=C1Cl` (centres undefined), the survivor count (T/C endpoint: mean survival time, dose: 50.0 mg/kg/injection, schedule: Q04DX002 (ip), vehicle: Klucel (hydroxypropylcellulose) (HPC)) was 3 of 3, the survivor count (T/C endpoint: mean survival time, dose: 100.0 mg/kg/injection, schedule: Q04DX002 (ip), vehicle: Klucel (hydroxypropylcellulose) (HPC)) was 0 of 3 and the survivor count (T/C endpoint: mean survival time, dose: 200.0 mg/kg/injection, schedule: Q04DX002 (ip), vehicle: Klucel (hydroxypropylcellulose) (HPC)) was 0 of 3. The survivor count (T/C endpoint: mean survival time, dose: 400.0 mg/kg/injection, schedule: Q04DX002 (ip), vehicle: Klucel (hydroxypropylcellulose) (HPC)) was 0 of 3.
`O=NN(CCCl)C(=O)Nc1ccc(F)cc1` was tested, and the T/C (T/C endpoint: mean survival time, dose: 4.7 mg/kg/injection, schedule: Q01DX001 (ip), vehicle: carboxymethylcellulose (CMC)) was 137 % of control, the survivor count (T/C endpoint: mean survival time, dose: 50.0 mg/kg/injection, schedule: Q01DX001 (ip), vehicle: carboxymethylcellulose (CMC)) was 6 of 6 and the survivor count (T/C endpoint: mean survival time, dose: 100.0 mg/kg/injection, schedule: Q01DX001 (ip), vehicle: carboxymethylcellulose (CMC)) was 6 of 6. The survivor count (T/C endpoint: mean survival time, dose: 200.0 mg/kg/injection, schedule: Q01DX001 (ip), vehicle: carboxymethylcellulose (CMC)) was 0 of 6, the survivor count (T/C endpoint: mean survival time, dose: 300.0 mg/kg/injection, schedule: Q01DX001 (ip), vehicle: carboxymethylcellulose (CMC)) was 0 of 6 and the survivor count (T/C endpoint: mean survival time, dose: 400.0 mg/kg/injection, schedule: Q01DX001 (ip), vehicle: carboxymethylcellulose (CMC)) was 0 of 6. For the same compound, the survivor count (T/C endpoint: mean survival time, dose: 500.0 mg/kg/injection, schedule: Q01DX001 (ip), vehicle: carboxymethylcellulose (CMC)) was 0 of 6.
